According to publication PMC12255121:
These are yes or no findings as the source states them, for the method shown. For some assays here: In cells and extracts the contact can be indirect. Some results given as binding are weak or reduced against the parent protein; the word gives no strength. For some assays here: Sequences can lack the tags named with a protein.

Sequences of proteins named here, by UniProt entry; tags and fusion partners are left off.
UniProt P08962: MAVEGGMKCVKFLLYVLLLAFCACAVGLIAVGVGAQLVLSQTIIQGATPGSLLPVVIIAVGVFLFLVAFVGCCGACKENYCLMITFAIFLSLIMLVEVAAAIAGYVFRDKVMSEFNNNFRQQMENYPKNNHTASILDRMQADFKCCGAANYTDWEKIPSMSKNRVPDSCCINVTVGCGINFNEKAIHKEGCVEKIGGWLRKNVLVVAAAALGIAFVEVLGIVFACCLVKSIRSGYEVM

T1: hOCT3-Cub-PLV (human organic cation transporter 3 fused to the C-terminal half of ubiquitin and protA-LexA-VP16) (human) (UniProt O75751)
T1 sequence: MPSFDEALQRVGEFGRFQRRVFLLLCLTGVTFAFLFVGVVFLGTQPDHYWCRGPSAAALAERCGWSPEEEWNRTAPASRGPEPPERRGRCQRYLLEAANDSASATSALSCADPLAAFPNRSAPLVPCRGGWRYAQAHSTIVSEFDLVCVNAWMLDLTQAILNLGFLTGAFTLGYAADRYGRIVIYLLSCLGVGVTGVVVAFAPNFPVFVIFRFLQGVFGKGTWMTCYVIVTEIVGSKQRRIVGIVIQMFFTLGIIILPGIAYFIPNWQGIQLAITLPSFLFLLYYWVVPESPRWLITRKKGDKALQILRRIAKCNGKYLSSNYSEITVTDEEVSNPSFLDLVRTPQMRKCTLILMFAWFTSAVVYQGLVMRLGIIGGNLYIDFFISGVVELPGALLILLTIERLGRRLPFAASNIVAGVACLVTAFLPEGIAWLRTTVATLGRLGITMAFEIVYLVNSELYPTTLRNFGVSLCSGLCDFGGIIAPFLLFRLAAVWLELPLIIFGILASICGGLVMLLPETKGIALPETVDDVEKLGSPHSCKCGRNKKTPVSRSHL


How the values were obtained:
[1] = biological target: T1, hOCT3-Cub-PLV (human organic cation transporter 3 fused to the C-terminal half of ubiquitin and protA-LexA-VP16) (human); assay: two-hybrid; mating-based split ubiquitin system (mbSUS) in yeast; bait hOCT3-Cub-PLV in THY.AP4 mated with prey Nub fusion in THY.AP5; growth on medium lacking Leu, Trp, Ade and His
[2] = biological target: His-tagged CD63 (CD63 in the pcDNA6.F9 vector containing a FLAG and 6xHis-Tag) (UniProt P08962); assay: pull-down; lysate of CD63-transfected HEK293 cells immobilized on Talon Sepharose beads via 6xHis tag, exposed 2 h to total lysates of HEK293 cells stably expressing hOCT3; lysis buffer with 1% Triton X-100; five washes (50 mM Na3PO4, 30 mM NaCl, 4 mM imidazole); elution with 150 mM imidazole; Western blot with anti-hOCT3

binding [1]	binding [2]	Molecule
binds	–	NubG-CD63 (tetraspanin CD63 fused to the N-terminal half of ubiquitin) (from UniProt P08962 1-238)
–	binds	human organic cation transporter 3 (hOCT3), stably expressed in HEK293 cells (protein, UniProt O75751 1-556) MPSFDEALQRVGEFGRFQRRVFLLLCLTGVTFAFLFVGVVFLGTQPDHYWCRGPSAAALAERCGWSPEEEWNRTAPASRGPEPPERRGRCQRYLLEAANDSASATSALSCADPLAAFPNRSAPLVPCRGGWRYAQAHSTIVSEFDLVCVNAWMLDLTQAILNLGFLTGAFTLGYAADRYGRIVIYLLSCLGVGVTGVVVAFAPNFPVFVIFRFLQGVFGKGTWMTCYVIVTEIVGSKQRRIVGIVIQMFFTLGIIILPGIAYFIPNWQGIQLAITLPSFLFLLYYWVVPESPRWLITRKKGDKALQILRRIAKCNGKYLSSNYSEITVTDEEVSNPSFLDLVRTPQMRKCTLILMFAWFTSAVVYQGLVMRLGIIGGNLYIDFFISGVVELPGALLILLTIERLGRRLPFAASNIVAGVACLVTAFLPEGIAWLRTTVATLGRLGITMAFEIVYLVNSELYPTTLRNFGVSLCSGLCDFGGIIAPFLLFRLAAVWLELPLIIFGILASICGGLVMLLPETKGIALPETVDDVEKLGSPHSCKCGRNKKTPVSRSHL
